Reference: the supplement of paper PMC11732987, “Enantioselective OTUD7B fragment discovery through chemoproteomics screening and high-throughput optimisation” (Communications Chemistry, 2025)
The list shows a part of the results. The data scatter; read single values as rough.

Chains of the proteins cited; added tags and fusions are not shown. Lines headed by an entry give the natural chain unless they say otherwise; changes in a name come on top. Residues count along the entry.
UniProt P40189, 409-431: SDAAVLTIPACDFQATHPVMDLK
UniProt Q13907: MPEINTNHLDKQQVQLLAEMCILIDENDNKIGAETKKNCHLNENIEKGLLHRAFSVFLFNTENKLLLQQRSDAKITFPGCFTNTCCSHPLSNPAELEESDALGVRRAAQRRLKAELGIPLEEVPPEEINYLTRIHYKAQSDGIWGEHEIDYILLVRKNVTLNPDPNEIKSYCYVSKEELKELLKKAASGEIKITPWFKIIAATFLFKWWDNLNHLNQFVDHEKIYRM
UniProt P38646, 53-73: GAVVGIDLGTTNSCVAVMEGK
UniProt P80217: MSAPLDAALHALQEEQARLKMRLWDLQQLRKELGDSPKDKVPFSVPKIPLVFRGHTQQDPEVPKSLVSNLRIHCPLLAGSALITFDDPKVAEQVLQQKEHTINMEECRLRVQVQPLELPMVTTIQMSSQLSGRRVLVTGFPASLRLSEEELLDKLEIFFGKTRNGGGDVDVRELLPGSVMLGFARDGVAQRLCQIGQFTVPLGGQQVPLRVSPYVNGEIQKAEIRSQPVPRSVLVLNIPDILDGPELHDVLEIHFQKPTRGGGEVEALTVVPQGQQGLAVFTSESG
UniProt Q96F46, whole entry, looked up: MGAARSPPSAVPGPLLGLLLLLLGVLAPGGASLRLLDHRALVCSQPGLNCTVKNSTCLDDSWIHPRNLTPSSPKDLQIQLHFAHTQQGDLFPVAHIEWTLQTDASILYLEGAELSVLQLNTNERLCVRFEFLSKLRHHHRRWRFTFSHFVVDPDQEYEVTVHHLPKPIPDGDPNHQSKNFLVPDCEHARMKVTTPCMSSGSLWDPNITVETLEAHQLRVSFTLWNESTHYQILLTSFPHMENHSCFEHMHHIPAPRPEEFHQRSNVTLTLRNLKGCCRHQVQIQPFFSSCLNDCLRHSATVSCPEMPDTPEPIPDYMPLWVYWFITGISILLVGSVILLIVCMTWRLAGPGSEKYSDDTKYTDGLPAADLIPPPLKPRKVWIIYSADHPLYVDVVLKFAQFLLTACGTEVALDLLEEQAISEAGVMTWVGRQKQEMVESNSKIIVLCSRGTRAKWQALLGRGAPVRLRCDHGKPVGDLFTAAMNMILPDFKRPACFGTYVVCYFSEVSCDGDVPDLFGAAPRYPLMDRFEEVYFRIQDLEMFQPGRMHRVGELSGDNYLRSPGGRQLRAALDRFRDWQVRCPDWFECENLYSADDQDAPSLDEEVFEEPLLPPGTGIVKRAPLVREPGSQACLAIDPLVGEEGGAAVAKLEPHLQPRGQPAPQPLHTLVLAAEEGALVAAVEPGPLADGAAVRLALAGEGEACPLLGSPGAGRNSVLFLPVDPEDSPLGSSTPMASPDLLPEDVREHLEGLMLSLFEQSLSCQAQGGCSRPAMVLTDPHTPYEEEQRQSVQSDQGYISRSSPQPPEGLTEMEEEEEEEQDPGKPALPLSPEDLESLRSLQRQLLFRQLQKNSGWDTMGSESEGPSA
UniProt Q9P2D0, 512-532: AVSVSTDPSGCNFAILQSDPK
UniProt Q9Y2F5, 1599-1623: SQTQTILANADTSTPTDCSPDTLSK
UniProt Q13576: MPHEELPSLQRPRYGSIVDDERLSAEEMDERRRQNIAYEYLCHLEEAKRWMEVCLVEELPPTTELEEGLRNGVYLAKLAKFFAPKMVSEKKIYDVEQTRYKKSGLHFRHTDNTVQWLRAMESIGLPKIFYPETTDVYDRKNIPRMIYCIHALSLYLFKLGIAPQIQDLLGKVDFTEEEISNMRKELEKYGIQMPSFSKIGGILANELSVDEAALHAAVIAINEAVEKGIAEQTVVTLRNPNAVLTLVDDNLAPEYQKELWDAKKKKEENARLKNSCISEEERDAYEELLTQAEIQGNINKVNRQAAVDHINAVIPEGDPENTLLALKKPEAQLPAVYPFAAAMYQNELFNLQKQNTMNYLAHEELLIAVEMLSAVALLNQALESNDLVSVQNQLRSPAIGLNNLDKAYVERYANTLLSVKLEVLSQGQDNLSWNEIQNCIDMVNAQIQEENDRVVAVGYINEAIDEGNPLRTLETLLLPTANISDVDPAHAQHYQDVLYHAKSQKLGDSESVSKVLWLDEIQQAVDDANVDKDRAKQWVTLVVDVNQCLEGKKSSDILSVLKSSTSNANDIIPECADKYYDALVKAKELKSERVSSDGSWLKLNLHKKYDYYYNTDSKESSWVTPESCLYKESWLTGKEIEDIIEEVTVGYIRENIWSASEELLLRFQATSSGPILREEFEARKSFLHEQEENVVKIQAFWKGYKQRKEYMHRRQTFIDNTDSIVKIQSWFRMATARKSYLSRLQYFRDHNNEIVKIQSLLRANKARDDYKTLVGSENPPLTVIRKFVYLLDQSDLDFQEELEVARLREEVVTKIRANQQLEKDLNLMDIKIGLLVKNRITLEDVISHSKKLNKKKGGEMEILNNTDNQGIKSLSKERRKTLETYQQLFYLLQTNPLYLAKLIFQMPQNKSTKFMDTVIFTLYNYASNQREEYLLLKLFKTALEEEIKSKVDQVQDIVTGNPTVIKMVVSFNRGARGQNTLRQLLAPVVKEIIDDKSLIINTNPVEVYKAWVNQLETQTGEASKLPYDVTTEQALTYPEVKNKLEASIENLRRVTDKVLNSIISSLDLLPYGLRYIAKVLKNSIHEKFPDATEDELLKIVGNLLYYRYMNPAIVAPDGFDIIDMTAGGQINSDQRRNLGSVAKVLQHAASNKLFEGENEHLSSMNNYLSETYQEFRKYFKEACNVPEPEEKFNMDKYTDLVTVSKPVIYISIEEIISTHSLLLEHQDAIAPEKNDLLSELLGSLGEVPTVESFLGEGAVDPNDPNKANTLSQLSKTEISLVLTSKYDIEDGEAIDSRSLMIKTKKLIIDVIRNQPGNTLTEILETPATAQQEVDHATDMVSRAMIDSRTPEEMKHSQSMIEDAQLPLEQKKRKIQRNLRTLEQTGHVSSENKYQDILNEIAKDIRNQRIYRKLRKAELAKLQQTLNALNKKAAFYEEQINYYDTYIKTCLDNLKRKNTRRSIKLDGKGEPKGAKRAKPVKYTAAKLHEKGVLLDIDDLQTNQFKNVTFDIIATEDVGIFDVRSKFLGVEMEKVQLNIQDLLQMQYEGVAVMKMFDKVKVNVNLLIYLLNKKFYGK
UniProt Q9ULD6: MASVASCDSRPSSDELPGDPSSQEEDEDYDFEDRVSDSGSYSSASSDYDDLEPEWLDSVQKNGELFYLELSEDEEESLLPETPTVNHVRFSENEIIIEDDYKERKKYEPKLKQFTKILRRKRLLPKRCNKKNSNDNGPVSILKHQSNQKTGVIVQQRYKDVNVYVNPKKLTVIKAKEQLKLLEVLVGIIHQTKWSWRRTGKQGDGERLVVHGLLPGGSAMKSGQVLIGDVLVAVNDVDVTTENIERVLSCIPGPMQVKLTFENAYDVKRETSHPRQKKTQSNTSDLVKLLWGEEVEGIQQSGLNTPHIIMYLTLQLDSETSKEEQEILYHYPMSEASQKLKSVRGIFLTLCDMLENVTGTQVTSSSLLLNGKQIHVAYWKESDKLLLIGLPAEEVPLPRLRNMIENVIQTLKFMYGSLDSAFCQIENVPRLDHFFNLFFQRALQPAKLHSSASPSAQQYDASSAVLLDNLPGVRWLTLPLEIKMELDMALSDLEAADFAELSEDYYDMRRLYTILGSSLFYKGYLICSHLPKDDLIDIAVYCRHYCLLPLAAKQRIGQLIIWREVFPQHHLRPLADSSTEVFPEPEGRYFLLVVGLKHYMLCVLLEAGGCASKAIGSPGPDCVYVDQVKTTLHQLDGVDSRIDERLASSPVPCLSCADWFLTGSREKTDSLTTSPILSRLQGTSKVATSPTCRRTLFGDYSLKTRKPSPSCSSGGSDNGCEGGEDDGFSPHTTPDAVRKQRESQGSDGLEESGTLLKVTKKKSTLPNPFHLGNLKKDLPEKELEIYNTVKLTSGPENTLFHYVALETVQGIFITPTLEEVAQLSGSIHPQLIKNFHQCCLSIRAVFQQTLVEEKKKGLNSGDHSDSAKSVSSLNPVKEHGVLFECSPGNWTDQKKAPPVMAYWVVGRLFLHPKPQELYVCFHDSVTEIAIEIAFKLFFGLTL
UniProt Q8N201, whole entry, looked up: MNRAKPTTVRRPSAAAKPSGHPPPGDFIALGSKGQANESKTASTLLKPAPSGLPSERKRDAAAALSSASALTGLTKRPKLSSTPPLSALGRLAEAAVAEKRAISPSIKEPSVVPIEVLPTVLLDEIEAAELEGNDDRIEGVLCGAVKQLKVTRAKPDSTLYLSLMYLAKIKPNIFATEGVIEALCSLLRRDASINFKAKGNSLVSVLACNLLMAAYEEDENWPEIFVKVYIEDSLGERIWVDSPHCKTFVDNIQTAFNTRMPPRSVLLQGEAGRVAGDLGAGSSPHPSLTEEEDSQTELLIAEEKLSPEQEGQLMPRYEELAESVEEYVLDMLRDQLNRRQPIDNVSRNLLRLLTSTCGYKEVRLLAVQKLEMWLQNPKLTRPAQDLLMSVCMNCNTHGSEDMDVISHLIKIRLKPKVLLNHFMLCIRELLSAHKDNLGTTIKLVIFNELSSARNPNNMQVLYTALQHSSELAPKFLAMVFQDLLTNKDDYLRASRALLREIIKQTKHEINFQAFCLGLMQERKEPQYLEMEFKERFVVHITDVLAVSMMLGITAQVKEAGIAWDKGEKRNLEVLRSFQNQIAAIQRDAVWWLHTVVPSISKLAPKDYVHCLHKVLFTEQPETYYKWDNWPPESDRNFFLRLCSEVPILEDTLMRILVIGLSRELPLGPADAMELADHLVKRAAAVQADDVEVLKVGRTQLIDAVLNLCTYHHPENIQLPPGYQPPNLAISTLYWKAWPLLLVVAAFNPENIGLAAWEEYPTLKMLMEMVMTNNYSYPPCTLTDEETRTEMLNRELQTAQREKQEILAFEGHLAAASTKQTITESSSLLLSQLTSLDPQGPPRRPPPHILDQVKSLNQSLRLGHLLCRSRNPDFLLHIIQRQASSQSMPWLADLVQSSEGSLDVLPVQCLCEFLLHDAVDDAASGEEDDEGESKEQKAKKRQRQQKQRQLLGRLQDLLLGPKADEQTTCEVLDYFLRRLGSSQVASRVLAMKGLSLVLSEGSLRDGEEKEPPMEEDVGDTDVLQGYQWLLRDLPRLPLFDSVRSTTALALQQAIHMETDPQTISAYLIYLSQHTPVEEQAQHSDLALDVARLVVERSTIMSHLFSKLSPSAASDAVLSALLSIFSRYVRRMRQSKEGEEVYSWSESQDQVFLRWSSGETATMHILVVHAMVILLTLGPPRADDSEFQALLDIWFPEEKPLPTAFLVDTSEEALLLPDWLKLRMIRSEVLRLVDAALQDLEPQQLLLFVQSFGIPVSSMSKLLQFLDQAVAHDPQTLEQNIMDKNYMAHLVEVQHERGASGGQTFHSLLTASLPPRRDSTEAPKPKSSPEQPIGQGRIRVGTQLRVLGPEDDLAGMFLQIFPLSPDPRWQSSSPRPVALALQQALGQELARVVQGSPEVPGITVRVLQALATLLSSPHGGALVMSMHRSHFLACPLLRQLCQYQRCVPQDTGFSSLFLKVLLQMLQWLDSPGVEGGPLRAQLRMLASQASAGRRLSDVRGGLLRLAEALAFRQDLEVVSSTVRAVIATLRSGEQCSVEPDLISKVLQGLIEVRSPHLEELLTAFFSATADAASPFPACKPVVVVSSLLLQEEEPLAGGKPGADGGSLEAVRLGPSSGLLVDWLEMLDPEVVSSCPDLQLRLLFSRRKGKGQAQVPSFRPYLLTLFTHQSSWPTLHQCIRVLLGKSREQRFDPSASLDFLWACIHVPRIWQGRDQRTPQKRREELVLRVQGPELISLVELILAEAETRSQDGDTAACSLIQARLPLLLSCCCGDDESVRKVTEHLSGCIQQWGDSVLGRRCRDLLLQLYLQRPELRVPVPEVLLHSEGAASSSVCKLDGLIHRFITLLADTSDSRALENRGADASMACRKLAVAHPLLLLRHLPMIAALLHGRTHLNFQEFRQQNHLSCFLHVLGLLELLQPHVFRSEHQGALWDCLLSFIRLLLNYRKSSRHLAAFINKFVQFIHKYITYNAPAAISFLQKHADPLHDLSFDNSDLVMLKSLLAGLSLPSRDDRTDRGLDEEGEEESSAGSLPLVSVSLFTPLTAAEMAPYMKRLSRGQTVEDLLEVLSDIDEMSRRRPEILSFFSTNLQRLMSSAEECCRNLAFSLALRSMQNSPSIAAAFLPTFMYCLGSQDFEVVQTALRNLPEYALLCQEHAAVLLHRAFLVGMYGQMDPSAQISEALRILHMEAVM
UniProt Q9H7X7: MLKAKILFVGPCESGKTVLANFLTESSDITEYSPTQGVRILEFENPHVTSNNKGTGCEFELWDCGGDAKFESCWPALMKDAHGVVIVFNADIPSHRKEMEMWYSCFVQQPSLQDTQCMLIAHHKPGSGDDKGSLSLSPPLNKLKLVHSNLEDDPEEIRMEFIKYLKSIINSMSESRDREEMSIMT

Each target was assayed with ClCC(=O)N[C@H]1CCCc2ccccc12 (assay: log2 mean competition ratio of IA-DTB cysteine labelling (DMSO/compound) (log2 ratio); higher = stronger cysteine engagement by compound). Conditions: 50 µM; treatment time: 4 h; cell line lysate: HEK293T.
Description: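 IA-DTB competitive cysteine chemoproteomics in HEK293T RIPA lysate. Lysates were treated with compound 29 or 30 at 50 or 200 µM for 4 h, then IA-DTB (500 µM, 1 h), trypsin-digested, NeutrAvidin-enriched and analysed by diaPASEF. Competition ratio = intensity DMSO / intensity compound (n=4 treated, n=64 DMSO); binding: mean log2 CR ≥ 1 and p ≤ 0.05 plus QC filters. Target is the cysteine site.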

Target	log2 mean competition ratio
IARS2 C883 (UniProt Q9NSE4)	-0.15
IL6ST C419 (UniProt P40189)	-0.208
HTATSF1 C471 (UniProt O43719)	0.127
HPS3 C52 (UniProt Q969F9)	-0.311
IGF2R C1217 (UniProt P11717)	-0.0497
INF2 C172 (UniProt Q27J81)	-0.0881
IFT81 C535 (UniProt Q8WYA0)	-0.0907
IDI1 C39 (UniProt Q13907)	-0.059
HSPA9 C66 (UniProt P38646)	0.229
IFI35 C107 (UniProt P80217)	0.0481
IFFO1 C341	-0.341
IL17RA C185 (UniProt Q96F46)	0.205
IBTK C522 (UniProt Q9P2D0)	0.164
ICE1 C228 (UniProt Q9Y2F5)	-0.0726
IQGAP2 C1449 (UniProt Q13576)	0.0463
INTU C692 (UniProt Q9ULD6)	0.126
ICE1 C1616 (UniProt Q9Y2F5)	-0.294
HSP90AA1 C572 (UniProt P07900)	0.208
INTS1 C1433 (UniProt Q8N201)	0.621
IFT22 C12 (UniProt Q9H7X7)	-0.074

Same assay, conditions: 200 µM; treatment time: 4 h; cell line lysate: HEK293T

Target	log2 mean competition ratio
IARS2 C883 (UniProt Q9NSE4)	0.0187
IL6ST C419 (UniProt P40189)	-0.234
HTATSF1 C471 (UniProt O43719)	0.518
HPS3 C52 (UniProt Q969F9)	-0.106
IGF2R C1217 (UniProt P11717)	0.141
INF2 C172 (UniProt Q27J81)	-0.153
IFT81 C535 (UniProt Q8WYA0)	-0.131
IDI1 C39 (UniProt Q13907)	0.0251
HSPA9 C66 (UniProt P38646)	-0.0801
IFI35 C107 (UniProt P80217)	-0.00981
IFFO1 C341	0.13
IL17RA C185 (UniProt Q96F46)	0.14
IBTK C522 (UniProt Q9P2D0)	-0.201
ICE1 C228 (UniProt Q9Y2F5)	0.187
IQGAP2 C1449 (UniProt Q13576)	-0.0564
INTU C692 (UniProt Q9ULD6)	0.77
ICE1 C1616 (UniProt Q9Y2F5)	-0.0231
HSP90AA1 C572 (UniProt P07900)	0.181
INTS1 C1433 (UniProt Q8N201)	0.722
IFT22 C12 (UniProt Q9H7X7)	0.0288
